# Measurements: PubChem BioAssay AID504444 (National Center for Advancing Translational Sciences (NCATS), 2011)
# Screen size: about 360,000 compounds; about 7,500 (2.1%) were called active. Inconclusive results, whose numbers are uncertain, are shown with a selection of clear calls. Calls follow the shape of the dose curve; as a rule, active = well fitted inhibition curve with a large enough effect; inconclusive = small, poorly fitted or top-dose-only effect, or effect the other way; inactive = flat fitted curve, though single readings scatter. Potencies beside an inconclusive call are fits to weak or partial responses and may not hold up.
# Test: Nrf2 qHTS screen for inhibitors; also: nearly all actives have a fitted effect of over 60% in size
# Details: A549 ARE-Fluc reporter, luciferase luminescence, 18-24 h; series mostly up to 46 µM
# How it was run: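 Concentration-response testing used A549 ARE_Fluc cells at 5000 cells/well. Following an 18-24 h compound incubation, viability was read by fluorescence (Ex 405/Em 525) and luciferase output by luminescence.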
# Potency is read from the fitted curve at half-maximal effect.
row,Structure (SMILES),Potency
1,COCCn1ccc2c(OCC(=O)Nc3ccccc3OC)cccc2c1=O,"inconclusive: 13 µM [falling, single point]"
2,COc1cccc(-c2nnn(CC(C)=O)n2)c1,"inconclusive: 10.3 µM [activator, partial curve, poor fit]"
3,O=C(Nc1ccc(N2CCOCC2)nc1N1CCOCC1)c1cccc(C(F)(F)F)c1,"inconclusive: 20.6 µM [falling, partial curve]"
4,Cc1ccc(OCc2ccc(C(=O)N3CCCC3)o2)cc1C,"inconclusive: 0.92 µM [activator, full curve]"
5,CCN1CCN(c2ccc(S(=O)(=O)N3CCCCC3)cc2NC(=O)Cc2ccc(Cl)c(Cl)c2)CC1,inactive
6,Cc1nn(Cc2ccc(Cl)cc2)c(C)c1NC(=O)c1ccc([N+](=O)[O-])cc1,"inconclusive: 18.4 µM [falling, partial curve, poor fit]"
7,CN(C)CCCNc1cc(O)c2ncccc2c1,active: 5.17 µM
8,CCOC(=O)c1cc(-c2ccccc2)sc1NC(=O)CN1C(=O)NC(CC)(c2ccccc2)C1=O (stereo not given),"inconclusive: 11.6 µM [falling, single point]"
9,CCOC(=O)c1sc2nc3c(SCCC(=O)O)cc(C(=O)c4cc(OC)ccc4O)cn3c(=O)c2c1C,"inconclusive: 14.6 µM [falling, single point]"
10,CCN(CCCNC(=O)CSc1cc(=O)n(C)c2cc(Cl)ccc12)Cc1ccccc1,"inconclusive: 20.6 µM [activator, single point]"
11,Cc1ccccc1NC(=O)CSc1n[nH]c(-c2ccccn2)n1,inactive
12,CCn1cc(C(=O)NCCc2ccccc2)c(=O)c2cc(S(=O)(=O)N(C)C)ccc21,"inconclusive: 6.51 µM [falling, single point]"
13,CCOc1ccc(NC(=O)CC2C(=O)N(c3ccc(OC)cc3)C(=O)N2CCc2ccc(OC)c(OC)c2)cc1 (stereo not given),"inconclusive: 9.2 µM [falling, partial curve, poor fit]"
14,CCc1ccc(CNC(=O)C2CC(=O)N(CCc3ccc(C)cc3)C2)cc1 (stereo not given),"inconclusive: 29.1 µM [falling, single point]"
15,CCOc1cccc2sc(N(CCN(CC)CC)C(=O)c3ccc(S(=O)(=O)N4CCCCC4)cc3)nc12,"inconclusive: 4.61 µM [activator, full curve]"
16,CCN1C(=O)c2ccccc2S(=O)c2ccc(C(=O)N3CCN(c4ccccc4)CC3)cc21 (stereo not given),"inconclusive: 20.6 µM [falling, partial curve]"
17,COC(=O)CSc1nnc2c3c4c(sc3nc(-n3nc(C)cc3C)n12)COC(C)(C)C4,"inconclusive: 9.2 µM [activator, partial curve, poor fit]"
18,CCOC(=O)CN(C(=O)CSc1nnc2c(n1)[nH]c1ccc(F)cc12)c1ccccc1,"inconclusive: 25.9 µM [falling, partial curve, poor fit]"
19,COC(=O)c1cc(S(=O)(=O)Nc2ccc(C)cn2)c[nH]1,inactive
20,COC(=O)c1ccc(NC(=O)C(=O)c2c[nH]c3ccccc23)cc1,"inconclusive: 3.66 µM [activator, full curve]"
21,COc1cccc(CNC(=O)CCCN2C(=O)CSc3c2c(C)nn3-c2ccccc2)c1OC,"inconclusive: 29.1 µM [falling, single point]"
22,O=C(CSc1ccc(Cl)cc1)N1CCN(c2ccc([N+](=O)[O-])cc2Cl)CC1,"inconclusive: 14.6 µM [falling, partial curve, poor fit]"

row,Structure (SMILES),Potency
1,CN(Cc1nc2ccccc2c(=O)[nH]1)C(=O)c1ccc(S(=O)(=O)N(C)C)cc1,inactive
2,O=C(Nc1ccccc1)Nc1csc2ccccc12,"inconclusive: 29.1 µM [activator, partial curve, poor fit]"
3,COC(=O)c1cccc(NC(=S)NCCC2=CCCCC2)c1,active: 23.1 µM
4,C=CCn1c(SCC(=O)Nc2sccc2C(N)=O)nc2ccccc2c1=O,active: 25.9 µM
5,O=C(Nc1ccccn1)c1cc(-c2cccc(Cl)c2)nc2ccccc12,"inconclusive: 9.2 µM [falling, partial curve]"
6,O=[N+]([O-])c1ccc(Cl)c(-c2ccc(/C=N/c3c(-c4ccco4)nc4ccccn34)o2)c1,"inconclusive: 2.91 µM [activator, full curve, poor fit]"
7,O=[N+]([O-])c1ccccc1N/N=C/c1c[nH]c2ccccc12,"inconclusive: 5.62 µM [activator, partial curve]"
8,O=C(c1cccs1)N1CCN=C1SCc1ccccc1,"inconclusive: 3.26 µM [falling, partial curve, poor fit]"
9,CSc1cccc(NS(=O)(=O)c2ccc(C(C)=O)cc2)c1,active: 4.61 µM
10,CCOC(=O)Cc1csc(NC(=O)c2sc3nc4ccc(CC)cc4cc3c2N)n1,inactive
11,Cc1c(NC(=O)c2cc(-c3ccc(Br)cc3)on2)c(=O)n(-c2ccccc2)n1C,"inconclusive: 18.4 µM [falling, single point]"
12,COc1ccc(CCNC(=S)NCCc2c[nH]c3ccccc23)cc1,inactive
13,O=C(N/N=C/c1cc(Cl)cc([N+](=O)[O-])c1O)c1cc(-c2ccccn2)nc2ccccc12,"inconclusive: 29.1 µM [falling, single point]"
14,C/C(=N\NC(N)=S)C1=CCC2C3CC[C@H]4CC(O)CC[C@]4(C)C3CC[C@]12C (stereo not given in full),"inconclusive: 5.17 µM [falling, partial curve, poor fit]"
15,Cc1cc(C)nc(NC(=NCCc2c[nH]c3ccccc23)NC(=O)Nc2cccc([N+](=O)[O-])c2)n1,inactive
16,CCc1ccc(CNCc2ccc(OCC(O)CN(C)Cc3ccccc3)cc2)nc1 (stereo not given),"inconclusive: 20.6 µM [falling, single point]"
17,O=C(C1CCN(S(=O)(=O)N2CCOCC2)CC1)N1CCN(c2ccc(F)cc2)CC1,inactive
18,CCc1cccc(CC)c1NC(=O)C1CCN(C(=O)c2ccco2)CC1,inactive
19,CCCCNc1nc2sc3c(c2c(=O)n1-c1cccc(Cl)c1)CCN(C)C3,"inconclusive: 2.31 µM [falling, partial curve, poor fit]"
20,CC1CCCN(c2ccc(C(=O)NCc3cccs3)cn2)C1 (stereo not given),"inconclusive: 1.03 µM [activator, full curve, poor fit]"
21,Cc1cccc(CCNC(=O)C2CCN(c3ncnc4c3nc3n4CCCCC3)CC2)c1,"inconclusive: 16.4 µM [activator, partial curve]"
22,O=[N+]([O-])c1ccc(CN2CCN(c3ccc(Cl)cc3)CC2)o1,inactive

# 3 consecutive compounds from above, quoted:
row,Structure (SMILES),Potency
19,CCCCNc1nc2sc3c(c2c(=O)n1-c1cccc(Cl)c1)CCN(C)C3,"inconclusive: 2.31 µM [falling, partial curve, poor fit]"
20,CC1CCCN(c2ccc(C(=O)NCc3cccs3)cn2)C1 (stereo not given),"inconclusive: 1.03 µM [activator, full curve, poor fit]"
21,Cc1cccc(CCNC(=O)C2CCN(c3ncnc4c3nc3n4CCCCC3)CC2)c1,"inconclusive: 16.4 µM [activator, partial curve]"

# (cont.)

row,Structure (SMILES),Potency
1,O=C(CCc1c[nH]c2ccccc12)Nc1ccc(S(=O)(=O)Nc2ncccn2)cc1,inactive
2,COc1ccccc1C(=O)OCc1cc(=O)n2nc(C3CCCCC3)sc2n1,"inconclusive: 25.9 µM [activator, single point]"
3,O=C(c1cc(C2CC2)nc2ccc(Br)cc12)N1N=C(C(F)F)CC1(O)C(F)F (stereo not given),active: 18.4 µM
4,COc1cccc(C(=O)Oc2ccccc2/C=C\C(=O)c2cc3ccccc3o2)c1,"inconclusive: 32.6 µM [activator, partial curve, poor fit]"
5,OC[C@H]1O[C@@H](n2cnc3c(Nc4ccccc4)ncnc32)[C@H](O)[C@@H]1O,"inconclusive: 25.9 µM [activator, single point]"
6,CCn1c(NCc2ccc(OC)c(OC)c2)nc2ccccc21,"inconclusive: 18.4 µM [falling, partial curve, poor fit]"
7,Cc1nc(-c2ccccn2)sc1C(=O)Nc1ccc(F)cc1,inactive
8,COc1ccc(CCn2c3c(c(=O)[nH]c2=S)CN(CC(C)C)CN3)cc1OC,inactive
9,CS(=O)(=O)N1CCCC(C(=O)Nc2cccc(F)c2)C1 (stereo not given),"inconclusive: 7.31 µM [falling, partial curve, poor fit]"
10,O=C(O)/C=C/C(=O)NCc1csc2ccccc12,inactive
11,Cc1cc(Cl)c2oc(C(=O)N(C)C(C)c3ccccn3)c(C)c2c1 (stereo not given),"inconclusive: 10.3 µM [activator, partial curve]"
12,Cc1[nH]c2ccc(-c3nnc(SCC(=O)c4ccc(F)cc4)o3)cc2c1C,"inconclusive: 5.17 µM [falling, partial curve, poor fit]"
13,COc1ccc(-c2nc(CN(C)C(C)c3ccon3)c(C)o2)c(C)c1C (stereo not given),"inconclusive: 16.4 µM [falling, partial curve, poor fit]"
14,CCN(C(=S)Nc1ccc(OC(F)F)cc1)C1CCCCC1,"inconclusive: 4.11 µM [activator, single point]"
15,CCCCCn1c(CCCNC(=O)c2cccc(C)c2)nc2ccccc21,"inconclusive: 29.1 µM [falling, single point]"
16,COCc1ccc(CN2CCC(C(=O)Nc3cccc(-c4cccc(Cl)c4)c3)CC2)o1,"inconclusive: 11.6 µM [falling, partial curve, poor fit]"
17,O=[N+]([O-])c1ccc(N2CCN(c3ccc(F)cc3)CC2)nc1,"inconclusive: 1.46 µM [falling, partial curve, poor fit]"
18,COc1ccc(CNC(=O)CN(C(=O)CCC(=O)Nc2nccs2)c2ccc3c(c2)OCO3)cc1,"inconclusive: 2.59 µM [activator, full curve]"
19,COc1ccc(CCNc2ncnc3cc(OC)c(OC)cc23)cc1OC,active: 20.6 µM
20,COc1ccc(C(=O)NC(=S)Nc2cccc(S(=O)(=O)N3CCOCC3)c2)cc1,inactive
21,N=c1oc2c3c4c(cc2cc1C(=O)Nc1ccccc1)CCCN4CCC3,"inconclusive: 1.46 µM [activator, full curve]"
